These are yes or no findings as the source states them, for the method shown. For part of these data: In cells and extracts the contact can be indirect. Some binding calls cover weakened binding; strength is not graded here. Sequences can lack the tags named with a protein.
B1: MITOGEN-… PROTEIN KINASE 11 (MPK11), yeast two-hybrid fusion (enzyme, UniProt Q9LMM5 1-369)
chain: MSIEKPFFGDDSNRGVSINGGRYVQYNVYGNLFEVSKKYVPPLRPIGRGASGIVCAAWNSETGEEVAIKKIGNAFGNIIDAKRTLREIKLLKHMDHDNVIAIIDIIRPPQPDNFNDVHIVYELMDTDLHHIIRSNQPLTDDHSRFFLYQLLRGLKYVHSANVLHRDLKPSNLLLNANCDLKIGDFGLARTKSETDFMTEYVVTRWYRAPELLLNCSEYTAAIDIWSVGCILGEIMTREPLFPGRDYVQQLRLITELIGSPDDSSLGFLRSDNARRYVRQLPQYPRQNFAARFPNMSVNAVDLLQKMLVFDPNRRITVDEALCHPYLAPLHEYNEEPVCVRPFHFDFEQPSLTEENIKELIYRESVKFNP
B2: MITOGEN-… PROTEIN KINASE 11 (MPK11), BiFC fusion (enzyme, UniProt Q9LMM5 1-369)
chain: B1 chain

By UniProt entry, the sequences of proteins in these tests, tags left out. Where a name states a change or a piece, a line headed by the entry shows the natural chain unless it says otherwise.
UniProt Q9MAI5: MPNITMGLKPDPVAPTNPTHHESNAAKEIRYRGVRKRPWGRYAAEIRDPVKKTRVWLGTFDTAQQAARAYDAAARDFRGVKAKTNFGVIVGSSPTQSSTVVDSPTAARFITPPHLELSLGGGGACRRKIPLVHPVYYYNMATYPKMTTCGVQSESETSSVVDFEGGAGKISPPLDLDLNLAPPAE

Experiments:
[1] = biological target: ETHYLENE RESPONSE FACTOR 8 (ERF8), yeast two-hybrid fusion (Arabidopsis thaliana) (UniProt Q9MAI5); assay: two-hybrid; yeast two-hybrid (Y2H); bait, prey and reporters not given
[2] = biological target: ERF8^L176A/L178A, BiFC fusion (Arabidopsis thaliana) (UniProt Q9MAI5); assay: split reporter; BiFC with split YFP (pBWGYn2 / pBWGYc2), Agrobacterium-mediated transient co-expression in N. benthamiana leaves, confocal microscopy; signal in the nucleus
[3] = biological target: ETHYLENE RESPONSE FACTOR 8 (ERF8), BiFC fusion (Arabidopsis thaliana) (UniProt Q9MAI5); assay: as above

Binder | binding [1] | binding [2] | binding [3]
B1 | binds |  | 
B2 |  | binds | binds
